# Assay results

Source: PubChem BioAssay AID1224904 (Broad Institute, 2016).

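Selective DUX4 reporter inhibition in doxycycline-induced 293T-iDUX4 cells, scored as Gaussia percent activity minus Italica percent activity, after a 24-hour treatment. The test concentration is not given here. Percent difference between the Gaussia and Italica channels; more negative values mean more selective suppression of the DUX4 reporter, and higher values mean less activity.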

Values are in %. How 0% and 100% were set is not given here. Common to all entries: measured here: selective DUX4 reporter inhibition. This is a side read-out of the assay, for part of the compounds, not drawn at random.

For CN(C)Cc1cn(CC[C@@H]2CC[C@H](N)[C@@H](CO)O2)nn1 the result was Gaussia minus Italica difference -12.17%.
For Cc1ccc(-c2ccccc2[C@@H]2[C@@H](CO)N(C(=O)NC3CCCC3)[C@H]2C#N)cc1 the result was Gaussia minus Italica difference -5.12%.
For CO[C@@H]1CN(C)C(=O)c2cc(NC(=O)c3ccc(Oc4ccccc4)cc3)ccc2OC[C@H](C)NC[C@@H]1C the result was Gaussia minus Italica difference 41.77%.
For COc1cccc(C#Cc2ccc([C@@H]3[C@H]4CN(C(=O)Cc5ccccc5)CC(=O)N4[C@H]3CO)cc2)c1 the result was Gaussia minus Italica difference 1.094%.
For O=C(C[C@@H]1CC[C@@H]2[C@H](COC[C@H](O)CN2Cc2ccc(Oc3ccccc3)cc2)O1)Nc1nccs1 the result was Gaussia minus Italica difference -12.42%.
For CN(C)C(=O)c1cccc(-c2ccc3c(c2)[C@H]2[C@H](CCN2C(=O)c2ccc4c(c2)OCO4)[C@H](CO)N3)c1 the result was Gaussia minus Italica difference 2.324%.
For O=C(c1cccnc1)N1CC(=O)N2[C@H](C1)[C@@H](c1ccc(/C=C/c3ccccc3)cc1)[C@@H]2CO the result was Gaussia minus Italica difference -5.819%.
For COc1cccc(-c2ccc3c(c2)[C@H]2[C@H](CCN2C(=O)c2ccc(F)cc2)[C@@H](CO)N3C)c1 the result was Gaussia minus Italica difference 0.9724%.
For C[C@H](CO)N1C[C@H](C)[C@@H](CN(C)S(=O)(=O)c2ccc(C#N)cc2)OCc2ccccc2-c2c(n(C)c3ccccc23)C1=O the result was Gaussia minus Italica difference -0.478%.
For COc1cccc(-c2ccc3c(c2)[C@H]2[C@H](CCN2S(=O)(=O)c2ccccc2F)[C@H](CO)N3C)c1 the result was Gaussia minus Italica difference 27.69%.
For C[C@@H]1CN([C@@H](C)CO)C(=O)c2c(c3ccccc3n2C)-c2ccccc2CO[C@H]1CN(C)Cc1cccc(C(F)(F)F)c1 the result was Gaussia minus Italica difference -22.05%.
For COc1ccccc1C#Cc1ccc([C@H]2[C@@H](CO)N3CCCCN(CCC(F)(F)F)C[C@H]23)cc1 the result was Gaussia minus Italica difference -9.758%.
For CN1c2ccc(-c3ccc(F)cc3)cc2[C@H]2[C@H](CCN2C(=O)c2ccccn2)[C@@H]1CO the result was Gaussia minus Italica difference 3.042%.
For Cc1ccccc1-c1ccc([C@@H]2[C@@H](CO)N3CCCCN(CC4CC4)C[C@H]23)cc1 the result was Gaussia minus Italica difference -2.955%.
For C[C@H]1CN([C@@H](C)CO)C(=O)c2c(c3ccccc3n2C)-c2ccccc2CO[C@@H]1CN(C)C(=O)Nc1cccc(Cl)c1Cl the result was Gaussia minus Italica difference -5.117%.
For N#Cc1cccc(-c2ccc(C3[C@H]4CNC[C@@H]3N4Cc3cc(-c4ccccc4)on3)cc2)c1 (stereo partly drawn) the result was Gaussia minus Italica difference 20.16%.
For N#Cc1ccc(-c2ccc3c(c2)[C@H]2[C@H](CCN2C(=O)Cc2ccccc2)[C@H](CO)N3)cc1 the result was Gaussia minus Italica difference 5.892%.
For O=C(C[C@H]1CC[C@@H]2[C@H](COC[C@H](O)CN2C(=O)c2ccc(F)cc2)O1)Nc1ccc(-c2ccccc2)cc1 the result was Gaussia minus Italica difference -3.462%.
For COc1cccc(S(=O)(=O)N2CC[C@H]3[C@@H](CO)N(C)c4ccc(C#Cc5cccnc5)cc4[C@H]32)c1 the result was Gaussia minus Italica difference 0.07607%.
For C[C@H]1CN([C@@H](C)CO)C(=O)c2c(c3ccccc3n2C)-c2ccccc2CO[C@H]1CN(C)Cc1ccc(F)cc1 the result was Gaussia minus Italica difference -1.214%.
For COc1cccc(-c2ccc3c(c2)[C@@H]2[C@@H](CCN2C(=O)Cc2ccccc2)[C@@H](CO)N3)c1 the result was Gaussia minus Italica difference 24.93%.
For COc1ccc2c3c(n(C)c2c1)[C@@H](CO)N(Cc1ccc(Cl)cc1)CC31CN(CC2CC2)C1 the result was Gaussia minus Italica difference -14.64%.
For CCc1sc(N2[C@H](C#N)[C@H](c3ccccc3-c3ccc(F)cc3)[C@@H]2CO)nc1C the result was Gaussia minus Italica difference 5.171%.
For O=C(C[C@@H]1CC[C@H]2[C@@H](COC[C@@H](O)CN2Cc2cccc(F)c2)O1)NCC1CCCCC1 the result was Gaussia minus Italica difference -1.81%.
For Fc1cccc(-c2ccc(C3[C@H]4CNC[C@@H]3N4Cc3ccccc3F)cc2)c1 (stereo partly drawn) the result was Gaussia minus Italica difference 10.02%.
For N#Cc1cccc(-c2ccc3c(c2)[C@@H]2[C@@H](CCN2S(=O)(=O)c2ccc(F)cc2)[C@@H](CO)N3)c1 the result was Gaussia minus Italica difference -11.86%.
For N#Cc1cccc(-c2ccc(C3[C@H]4CNC[C@@H]3N4Cc3cccc(F)c3)cc2)c1 (stereo partly drawn) the result was Gaussia minus Italica difference -16.52%.
For C[C@H](CO)N1C[C@H](C)[C@@H](CN(C)CC2CCOCC2)Oc2cc(C#Cc3ccccc3F)ccc2S1(=O)=O the result was Gaussia minus Italica difference -4.429%.
For O=C(C[C@H]1C[C@H]2c3cc(NC(=O)c4ccc5c(c4)OCO5)ccc3O[C@H]2[C@H](CO)O1)NCc1ccc(Oc2ccccc2)cc1 the result was Gaussia minus Italica difference -1.911%.
For COc1ccc(-c2ccc3c(c2)[C@H]2[C@H](CCN2C(=O)c2ccc4c(c2)OCO4)[C@H](CO)N3)cc1 the result was Gaussia minus Italica difference -2.015%.
For N#C[C@@H]1[C@H](c2ccccc2-c2ccc(F)cc2)[C@H](CO)N1C(=O)NC1CCCCC1 the result was Gaussia minus Italica difference -12.02%.
For CC(C)CC#Cc1ccc([C@@H]2[C@@H](CO)N3CCCCN(S(=O)(=O)c4ccc(F)cc4)C[C@H]23)cc1 the result was Gaussia minus Italica difference -1.532%.
For COc1ccc2c3c([nH]c2c1)[C@H](CO)N(C(=O)Nc1ccc(F)cc1)CC31CCN(C(=O)Nc2ccccc2)CC1 the result was Gaussia minus Italica difference -16.78%.
For O=C(C[C@@H]1CC[C@@H]2[C@H](COC[C@H](O)CN2Cc2cccc(-c3ccncc3)c2)O1)N1CCOCC1 the result was Gaussia minus Italica difference -3.684%.

For reference, 3 entries once more:

| Compound | Gaussia minus Italica difference (%) |
|---|---|
| `COc1cccc(-c2ccc3c(c2)[C@@H]2[C@@H](CCN2C(=O)Cc2ccccc2)[C@@H](CO)N3)c1` | 24.93 |
| `C[C@H](CO)N1C[C@H](C)[C@@H](CN(C)S(=O)(=O)c2ccc(C#N)cc2)OCc2ccccc2-c2c(n(C)c3ccccc23)C1=O` | -0.478 |
| `O=C(C[C@H]1CC[C@@H]2[C@H](COC[C@H](O)CN2C(=O)c2ccc(F)cc2)O1)Nc1ccc(-c2ccccc2)cc1` | -3.462 |